According to EP4678639A1, “SALT OF BENZIMIDAZOLE DERIVATIVE” (JW Pharmaceutical Corporation, priority 2023, dated 2024):
Where a name gives a salt, the structure may show the parent alone. The name of at least one read-out is uncertain.

Experiment: Solubility comparative test (Korean Pharmacopoeia 'Solubility')
Details: Table 12 summary

Cc1nc2c(O[C@H]3CCOc4cc(F)cc(F)c43)cc(C(=O)N(C)C)cc2[nH]1 [Malate Salt]
Solubility: 714.3
